{
  "source": "patent US10899707B2",
  "about": "“Methods for forming peroxyformic acid and uses thereof” (ECOLAB USA INC., priority 2014, dated 2021)",
  "key": {"[1]": {"experiment": "Dissolved oxygen in treated produced water (dissolved oxygen probe)"}, "[2]": {"experiment": "Corrosion inhibitors protecting carbon steel against performic acid corrosion (mpy, % protection)", "conditions": "PFA:Peroxide of 38:1"}, "[3]": {"experiment": "Performance of corrosion inhibitor in sea water and produced water systems (% protection)", "conditions": "200 ppm active performic acid, 50 ppm corrosion inhibitor (PFA: no inhibitor)", "experimental": "200 ppm active of performic acid was added. 50 ppm of corrosion inhibitor was added for corrosion protection. % protection was plotted by comparison of the corrosion rate in the presence of corrosion inhibitor to the corrosion rate with no corrosion inhibitor addition (PFA or PFA-PW) as shown in Table 30."}, "[4]": {"conditions": "500.0 ppm of prod (29.0 ppm PFA, 0.0 ppm H2O2)"}, "[5]": {"conditions": "1000.0 ppm of prod (58.0 ppm PFA, 0.0 ppm H2O2)"}, "[6]": {"conditions": "1500.0 ppm of prod (87.0 ppm PFA, 0.0 ppm H2O2)"}, "[7]": {"conditions": "2000.0 ppm of prod (116.0 ppm PFA, 0.0 ppm H2O2)"}, "[8]": {"conditions": "4000.0 ppm of prod (232.0 ppm PFA, 0.0 ppm H2O2)"}, "[9]": {"conditions": "8000.0 ppm of prod (464.0 ppm PFA, 0.0 ppm H2O2)"}, "[10]": {"conditions": "relative to baseline of the cell"}},
  "data": [
    {"smiles": "O=COO", "note": "[PFA, peroxyformic acid]", "values": [
      {"measurement": "Concentration of oxygen detected, Expt1 ppm O2", "setting": "[1]; [4]", "result": 5.4, "unit": "ppm"},
      {"measurement": "Concentration of oxygen detected, Expt2 ppm O2", "setting": "[1]; [4]", "result": 5.4, "unit": "ppm"},
      {"measurement": "Concentration of oxygen detected, avg ppm O2", "setting": "[1]; [4]", "result": 5.4, "unit": "ppm"},
      {"measurement": "Increase from baseline of oxygen, Expt1 ppm O2", "setting": "[1]; [4]", "result": "−2.6", "unit": "ppm"},
      {"measurement": "Increase from baseline of oxygen, Expt2 ppm O2", "setting": "[1]; [4]", "result": "−3.2", "unit": "ppm"},
      {"measurement": "Increase from baseline of oxygen, avg ppm O2", "setting": "[1]; [4]", "result": "−2.9", "unit": "ppm"},
      {"measurement": "Concentration of oxygen detected, Expt1 ppm O2", "setting": "[1]; [5]", "result": 6.2, "unit": "ppm"},
      {"measurement": "Concentration of oxygen detected, Expt2 ppm O2", "setting": "[1]; [5]", "result": 4.9, "unit": "ppm"},
      {"measurement": "Concentration of oxygen detected, avg ppm O2", "setting": "[1]; [5]", "result": 5.5, "unit": "ppm"},
      {"measurement": "Increase from baseline of oxygen, Expt1 ppm O2", "setting": "[1]; [5]", "result": "−1.8", "unit": "ppm"},
      {"measurement": "Increase from baseline of oxygen, Expt2 ppm O2", "setting": "[1]; [5]", "result": "−3.7", "unit": "ppm"},
      {"measurement": "Increase from baseline of oxygen, avg ppm O2", "setting": "[1]; [5]", "result": "−2.8", "unit": "ppm"},
      {"measurement": "Concentration of oxygen detected, Expt1 ppm O2", "setting": "[1]; [6]", "result": 6.5, "unit": "ppm"},
      {"measurement": "Concentration of oxygen detected, Expt2 ppm O2", "setting": "[1]; [6]", "result": 5.2, "unit": "ppm"},
      {"measurement": "Concentration of oxygen detected, avg ppm O2", "setting": "[1]; [6]", "result": 5.8, "unit": "ppm"},
      {"measurement": "Increase from baseline of oxygen, Expt1 ppm O2", "setting": "[1]; [6]", "result": "−1.5", "unit": "ppm"},
      {"measurement": "Increase from baseline of oxygen, Expt2 ppm O2", "setting": "[1]; [6]", "result": "−3.4", "unit": "ppm"},
      {"measurement": "Increase from baseline of oxygen, avg ppm O2", "setting": "[1]; [6]", "result": "−2.5", "unit": "ppm"},
      {"measurement": "Concentration of oxygen detected, Expt1 ppm O2", "setting": "[1]; [7]", "result": 6.3, "unit": "ppm"},
      {"measurement": "Concentration of oxygen detected, Expt2 ppm O2", "setting": "[1]; [7]", "result": 5.2, "unit": "ppm"},
      {"measurement": "Concentration of oxygen detected, avg ppm O2", "setting": "[1]; [7]", "result": 5.8, "unit": "ppm"},
      {"measurement": "Increase from baseline of oxygen, Expt1 ppm O2", "setting": "[1]; [7]", "result": "−1.7", "unit": "ppm"},
      {"measurement": "Increase from baseline of oxygen, Expt2 ppm O2", "setting": "[1]; [7]", "result": "−3.4", "unit": "ppm"},
      {"measurement": "Increase from baseline of oxygen, avg ppm O2", "setting": "[1]; [7]", "result": "−2.6", "unit": "ppm"},
      {"measurement": "Concentration of oxygen detected, Expt1 ppm O2", "setting": "[1]; [8]", "result": 5.8, "unit": "ppm"},
      {"measurement": "Concentration of oxygen detected, Expt2 ppm O2", "setting": "[1]; [8]", "result": 4.7, "unit": "ppm"},
      {"measurement": "Concentration of oxygen detected, avg ppm O2", "setting": "[1]; [8]", "result": 5.3, "unit": "ppm"},
      {"measurement": "Increase from baseline of oxygen, Expt1 ppm O2", "setting": "[1]; [8]", "result": "−2.2", "unit": "ppm"},
      {"measurement": "Increase from baseline of oxygen, Expt2 ppm O2", "setting": "[1]; [8]", "result": "−3.9", "unit": "ppm"},
      {"measurement": "Increase from baseline of oxygen, avg ppm O2", "setting": "[1]; [8]", "result": "−3.1", "unit": "ppm"},
      {"measurement": "Concentration of oxygen detected, Expt1 ppm O2", "setting": "[1]; [9]", "result": 6.5, "unit": "ppm"},
      {"measurement": "Concentration of oxygen detected, Expt2 ppm O2", "setting": "[1]; [9]", "result": 5.1, "unit": "ppm"},
      {"measurement": "Concentration of oxygen detected, avg ppm O2", "setting": "[1]; [9]", "result": 5.8, "unit": "ppm"},
      {"measurement": "Increase from baseline of oxygen, Expt1 ppm O2", "setting": "[1]; [9]", "result": "−1.5", "unit": "ppm"},
      {"measurement": "Increase from baseline of oxygen, Expt2 ppm O2", "setting": "[1]; [9]", "result": "−3.5", "unit": "ppm"},
      {"measurement": "Increase from baseline of oxygen, avg ppm O2", "setting": "[1]; [9]", "result": "−2.5", "unit": "ppm"},
      {"measurement": "total dissolved oxygen (in words)", "setting": "[1]; produced water", "result": "decreased"},
      {"measurement": "2 hrs after dosing, mpy", "setting": "[2]", "result": 236.2, "unit": "mpy"},
      {"measurement": "8 hrs after dosing, mpy", "setting": "[2]", "result": 243.1, "unit": "mpy"},
      {"measurement": "Last hour of testing, mpy", "setting": "[2]", "result": 419.4, "unit": "mpy"},
      {"measurement": "2 hrs after dosing, % Protection", "setting": "[2]; [10]", "result": "−631.1", "unit": "%"},
      {"measurement": "8 hrs after dosing, % Protection", "setting": "[2]; [10]", "result": "−652.3", "unit": "%"},
      {"measurement": "Last hour of testing, % Protection", "setting": "[2]; [10]", "result": "−1197.9", "unit": "%"},
      {"measurement": "mpy, 3 hrs after dosing", "setting": "[3]; produced water (PW)", "result": 17.2, "unit": "mpy"},
      {"measurement": "mpy, 8 hrs after dosing", "setting": "[3]; produced water (PW)", "result": 16.7, "unit": "mpy"},
      {"measurement": "mpy, Last hour of testing", "setting": "[3]; produced water (PW)", "result": 18.4, "unit": "mpy"},
      {"measurement": "mpy, 3 hrs after dosing", "setting": "[3]; sea water", "result": 545.9, "unit": "mpy"},
      {"measurement": "mpy, 8 hrs after dosing", "setting": "[3]; sea water", "result": 686.9, "unit": "mpy"},
      {"measurement": "mpy, Last hour of testing", "setting": "[3]; sea water", "result": 739.4, "unit": "mpy"}
    ]}
  ]
}
